# Results taken from PubChem BioAssay AID2685 (National Center for Advancing Translational Sciences (NCATS), 2010).
# The other results are listed elsewhere or left out. Shown are side measurements of this screen, not its main read-out; they come without a call. Compounds called inactive in the main read-out are mostly missing here. The note in brackets gives the kind of curve behind each potency; many fits are weak.
# Experiment: qHTS Assay for Lipid Storage Modulators in Drosophila S3 Cells;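 as to cell number change: cells counted by Cell Tracker Red CMTPX staining in the red channel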
# Settings: BODIPY lipid droplet fluorescence, 18-24 h; for cell number change: measured here: cell count max response, cells fed with added oleic acid
# How it was run: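 Drosophila S3 cells got compounds at several concentrations plus oleic acid (400 uM solution). Laser-scanning cytometry with 488 nm excitation read lipid droplets at 500-530 nm and cells at 575-640 nm. Percent activity was relative to 20 uM Triacsin C.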
# [1] = measured here: cell number channel AC50, cells fed with added oleic acid
# [2] = measured here: lipid fluorescence (Fed channel) AC50, cells fed with added oleic acid
SMILES,cell number change [%],AC50 [1],AC50 [2]
CCOc1ccc(C(=O)Nc2ccc(CN3CCOCC3)cc2)cc1Cl,12.6,–,–
Cc1ccc2cc(C)c3nnc(SCC(=O)c4cccs4)n3c2c1C,-1.51,–,–
COc1ccc(OC)c(NC(=O)CS(=O)(=O)c2ccccc2)c1,6.02,–,–
O=C(CCN1C(=O)C2C3C=CC(C3)C2C1=O)Nc1ccc(F)cc1 (centres undefined),50.8,"16.4 µM [rising, single point]","20.6 µM [rising, partial curve]"
O=C(Nc1ccc(Nc2ccccc2)cc1)c1cc([N+](=O)[O-])ccc1Cl,-47,"8.2 µM [falling, partial curve]",–
CCS(=O)(=O)Nc1ccc(C2=NN(C(=O)c3ccco3)C(c3ccco3)C2)cc1 (centres undefined),79.5,"8.2 µM [rising, partial curve]",–
COc1ccc(C(=O)/C=C2/c3ccccc3CC(C)(C)N2C)cc1OC,2.38,–,"0.146 µM [rising, full curve, poor fit]"
Cc1cccc(CNC(=O)c2ccccc2NC(=O)C2=CSCCO2)c1,-33.3,"18.4 µM [falling, single point]",–
COc1ccc(NS(=O)(=O)c2ccc3c(c2)CCCN3C(C)=O)cc1,14.1,–,"29.1 µM [rising, single point]"
O=C(Cc1ccccc1)N/N=C/c1cc2c(cc1Cl)OCO2,1.09,–,"0.731 µM [rising, partial curve]"
CC(=O)N1c2ccc(S(=O)(=O)NCCC(=O)N3CCCC(C)C3)cc2CC1C (centres undefined),5.6,"0.206 µM [rising, full curve, poor fit]",–
O=C(NNS(=O)(=O)c1ccc(F)cc1)C1CCN(S(=O)(=O)c2ccccc2)CC1,-10.8,–,–
O=C(O)CC/C(=N\NC(=O)CNC(=O)c1ccc(F)cc1)c1ccccc1,–,"0.731 µM [falling, single point]",–
CCCc1cc(=O)oc2c(CN3CCCC3)c(O)c(Cl)cc12,–,"0.731 µM [rising, full curve, poor fit]",–
COc1nc(NCc2ccco2)nc(N2CCC(C)CC2)n1,-44.9,"32.6 µM [falling, single point]","29.1 µM [falling, single point]"
COCCN=C1Sc2nc3cc(C)c(C)cc3cc2CN1Cc1cccs1,-13.2,–,–
CCc1ccccc1NC(=O)[C@@H]1CCC(=O)N1C1OC(=O)c2c1ccc(OC)c2OC (some centres undefined),11,–,"29.1 µM [falling, single point]"
O=C(NCCc1ccccc1)c1cnc2ccccc2n1,24.3,"0.291 µM [rising, full curve, poor fit]",–
O=C(CS(=O)(=O)c1ccc(Cl)cc1)NCc1ccccc1,15.5,–,"16.4 µM [rising, partial curve]"
Cc1[nH]nc(S(=O)CC(=O)O)c1[N+](=O)[O-] (centres undefined),22.4,"2.06 µM [rising, full curve, poor fit]","2.59 µM [rising, full curve]"

SMILES,cell number change [%],AC50 [1],AC50 [2]
COC(=O)Cc1ccc(NC(=S)N2CCN(c3cccc(O)c3)CC2)cc1,-4.26,–,"20.6 µM [falling, single point]"
O=C(NN1C(=O)C2C3C=CC(C4CC34)C2C1=O)c1cccc(Cl)c1 (centres undefined),11.1,–,"18.4 µM [rising, single point]"
OCCCN1CCN(CCOc2ccccc2-c2ccccc2)CC1,-5.68,–,"0.58 µM [rising, single point]"
CCCCc1cc(=O)oc2cc(OCC(=O)NCCN3CCOCC3)ccc12,-10.1,–,"6.51 µM [rising, single point]"
O=C(Nc1nccs1)c1ccc(-c2ccc(Cl)cc2)o1,-28.6,–,"16.4 µM [falling, single point]"
CNC(=O)C1=C(C)Nc2nc3ccccc3n2C1c1cccc(OC)c1 (centres undefined),-30.8,"16.4 µM [falling, single point]",–
CCCCCN(C(=O)CCC(=O)OCc1cccc(Cl)c1)c1c(N)n(CCCC)c(=O)[nH]c1=O,–,"2.91 µM [rising, partial curve, poor fit]",–
O=C(CN1CCN(S(=O)(=O)c2ccc(Br)cc2)CC1)Nc1ccccc1F,-11.3,–,"3.66 µM [rising, single point]"
CC(C)c1ccc(C(=O)NNC(=O)c2ccncc2)cc1,7.56,–,"29.1 µM [rising, single point]"
COc1ccccc1NC(=O)N1CCCC1C(=O)NCc1ccccc1Cl (centres undefined),-34.6,"16.4 µM [falling, single point]","20.6 µM [falling, single point]"
CCn1c(=O)cc(C(F)(F)F)[nH]c1=S,11.5,–,–
O=C1c2ccccc2NC(c2ccc([N+](=O)[O-])cc2)N1O (centres undefined),–,–,"6.51 µM [falling, partial curve]"
COc1cc(C)nc(Oc2ccc(=O)[nH]n2)n1,-3.25,–,"6.51 µM [falling, partial curve, poor fit]"
CCCn1c(=O)[nH]c(=O)c2c1nc(-c1ccc3c(c1)OCCO3)n2CCN1CCOCC1,13.6,"0.651 µM [falling, single point]","29.1 µM [rising, single point]"
O=C(c1ccc(Cl)c(S(=O)(=O)N2CCCCCC2)c1)N1CCN(c2ccc(O)cc2)CC1,-12.5,–,"29.1 µM [falling, single point]"
CCCCOC(=O)CSc1nnc(-c2ccc(Cl)cc2Cl)o1,22.3,–,–
COc1ccccc1C(=O)NNC(=O)c1ccc(C)cc1,3.67,–,"16.4 µM [rising, single point]"
O=C(Nc1ccc2[nH]ncc2c1)c1ccccc1,5.26,–,–
Cc1c(NC(=O)C(C)OC(=O)/C=C/c2ccccc2)c(=O)n(-c2ccccc2)n1C (centres undefined),–,"6.51 µM [rising, single point]","5.8 µM [rising, single point]"
O=C(NNC(=O)c1cc(-c2ccccc2)nc2ccccc12)Nc1cccc(Cl)c1,-31.5,"16.4 µM [falling, single point]","2.59 µM [rising, partial curve]"

# Entries of single compounds, quoted from the list. Values in the order: cell number change [%] | AC50 [1] | AC50 [2]
# CCCn1c(=O)[nH]c(=O)c2c1nc(-c1ccc3c(c1)OCCO3)n2CCN1CCOCC1 in the list: 13.6 | 0.651 µM [falling, single point] | 29.1 µM [rising, single point]
# COc1ccccc1NC(=O)N1CCCC1C(=O)NCc1ccccc1Cl (centres undefined) in the list: -34.6 | 16.4 µM [falling, single point] | 20.6 µM [falling, single point]
# CCn1c(=O)cc(C(F)(F)F)[nH]c1=S in the list: 11.5 | – | –
